Laboratory results from patent US20200237909A1, “METHODS OF TREATING OR PREVENTING BREAST CANCER METASTASES USING ANTIBODIES TO JAGGED1 AND CHEMOTHERAPEUTIC AGENTS” (The Trustees of Princeton University, priority 2017, published 2020).
For some assays here: At least one compound was matched to its structure with a doubt left. Some results were stated once for a whole list of compounds, not compound by compound.

What was measured:
MSCs = experiment: Stress inducers/inhibitors: Jagged1 expression and ROS production in MSCs; assay type: cell-based, mouse
Excerpt: Next, which signaling pathway is responsible for Jagged1 induction after chemotherapy in osteoblast lineage cells was investigated. Chemotherapy generates many stress responses in cells, including endoplasmic reticulum stress (ER stress), and oxidative stress. Some of the stress conditions have been associated with the regulation of Jagged1 expression (Paul et al., 2014). Several treatments were used to mimic or inhibit these stress responses and then Jagged1 mRNA and protein levels were analyzed within the cells.
293T, H29-Clone #7, MC3T3-E1 Clone #4(denoted as MC3T3 for abbreviation thereafter), MCF7TR, mouse mesenchymal stromal cell (MSC, isolated from BALB/c), 4T1.2, SCP28, SCP28-Vector and -Jagged1 cells, SCP28, RAW264.7, and SUM1315-M1B1 cells were cultured according to American Type Culture Collection instructions and the inventors' previous studies (Ell et al., 2013; Ren et al., 2008; Sethi et al., 2011; Zheng et al., 2014). MSC cells were derived previously and were cultured in DMEM supplemented with 10% FBS, 30 ng/ml bFGF, 100 U/ml penicillin, and 100 μg/ml streptomycin (Ren et al., 2008). All plasmids were transfected into different cell lines using Lipofectamine 2000 following the manufacturer's manual (Life Technologies, CA, USA). To generate stable cell lines, a pLEX-MCS based lentivirus vector or a pMSCV-hygro based retrovirus vector was used in our study. […]

[1] = test system: 4T1.2 mammary tumor cells; experiment: 4T1.2 spontaneous bone metastasis model; assay type: in vivo, Balb/c mice; conditions: X-ray

SMILES: O=C1O[C@H]([C@@H](O)CO)C(O)=C1O [ascorbate]
- Jagged1 expression in MSCs (MSCs): induced a strong Jagged1 expression

SMILES: CC(=O)O[C@H]1C(=O)[C@@]2(C)[C@H]([C@H](OC(=O)c3ccccc3)[C@]3(O)C[C@H](OC(=O)[C@H](O)[C@@H](NC(=O)c4ccccc4)c4ccccc4)C(C)=C1C3(C)C)[C@]1(OC(C)=O)CO[C@@H]1C[C@@H]2O [paclitaxel]
- reduction of bone metastasis incidence [1]: 15-30%
